Measured values: publication PMC3585349
No constants are given. Whether binding was seen depends on the method and setting. For part of these data: In cells and extracts the contact can be indirect. Some binding calls cover weakened binding; strength is not graded here. Each block holds one substance with its values, some of them ahead of it.

The chains behind the UniProt entries cited, without tags or fusion partners. Where a name states a change or a piece, a line headed by the entry shows the natural chain unless it says otherwise. Residues count along the entry.
UniProt P08514: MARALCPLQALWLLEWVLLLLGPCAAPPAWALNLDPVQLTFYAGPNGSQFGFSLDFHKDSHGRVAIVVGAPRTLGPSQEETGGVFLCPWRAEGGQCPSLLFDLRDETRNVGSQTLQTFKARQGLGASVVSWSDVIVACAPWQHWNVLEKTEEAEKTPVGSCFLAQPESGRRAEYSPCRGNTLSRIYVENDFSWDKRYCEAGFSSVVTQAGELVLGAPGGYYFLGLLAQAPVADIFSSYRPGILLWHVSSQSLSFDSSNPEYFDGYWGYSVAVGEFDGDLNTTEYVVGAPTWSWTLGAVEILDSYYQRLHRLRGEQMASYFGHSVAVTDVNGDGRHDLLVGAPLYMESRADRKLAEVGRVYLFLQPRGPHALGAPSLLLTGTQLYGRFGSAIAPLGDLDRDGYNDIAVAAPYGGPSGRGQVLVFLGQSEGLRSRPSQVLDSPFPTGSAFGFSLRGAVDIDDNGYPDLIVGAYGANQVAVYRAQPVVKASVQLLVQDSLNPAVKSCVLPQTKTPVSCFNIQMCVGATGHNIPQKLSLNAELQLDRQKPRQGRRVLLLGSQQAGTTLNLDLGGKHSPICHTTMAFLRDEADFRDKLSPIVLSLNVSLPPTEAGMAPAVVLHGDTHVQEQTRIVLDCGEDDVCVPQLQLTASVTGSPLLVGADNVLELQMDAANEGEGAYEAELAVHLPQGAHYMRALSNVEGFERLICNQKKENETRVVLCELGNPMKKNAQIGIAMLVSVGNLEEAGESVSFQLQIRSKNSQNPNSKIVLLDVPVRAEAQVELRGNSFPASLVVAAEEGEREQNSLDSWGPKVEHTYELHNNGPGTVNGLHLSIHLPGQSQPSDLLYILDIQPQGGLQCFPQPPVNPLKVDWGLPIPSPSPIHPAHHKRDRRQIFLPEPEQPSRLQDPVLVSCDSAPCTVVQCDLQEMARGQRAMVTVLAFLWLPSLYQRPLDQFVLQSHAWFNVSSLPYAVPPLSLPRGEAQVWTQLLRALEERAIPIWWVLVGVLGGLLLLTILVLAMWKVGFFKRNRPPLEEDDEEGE
UniProt P05106: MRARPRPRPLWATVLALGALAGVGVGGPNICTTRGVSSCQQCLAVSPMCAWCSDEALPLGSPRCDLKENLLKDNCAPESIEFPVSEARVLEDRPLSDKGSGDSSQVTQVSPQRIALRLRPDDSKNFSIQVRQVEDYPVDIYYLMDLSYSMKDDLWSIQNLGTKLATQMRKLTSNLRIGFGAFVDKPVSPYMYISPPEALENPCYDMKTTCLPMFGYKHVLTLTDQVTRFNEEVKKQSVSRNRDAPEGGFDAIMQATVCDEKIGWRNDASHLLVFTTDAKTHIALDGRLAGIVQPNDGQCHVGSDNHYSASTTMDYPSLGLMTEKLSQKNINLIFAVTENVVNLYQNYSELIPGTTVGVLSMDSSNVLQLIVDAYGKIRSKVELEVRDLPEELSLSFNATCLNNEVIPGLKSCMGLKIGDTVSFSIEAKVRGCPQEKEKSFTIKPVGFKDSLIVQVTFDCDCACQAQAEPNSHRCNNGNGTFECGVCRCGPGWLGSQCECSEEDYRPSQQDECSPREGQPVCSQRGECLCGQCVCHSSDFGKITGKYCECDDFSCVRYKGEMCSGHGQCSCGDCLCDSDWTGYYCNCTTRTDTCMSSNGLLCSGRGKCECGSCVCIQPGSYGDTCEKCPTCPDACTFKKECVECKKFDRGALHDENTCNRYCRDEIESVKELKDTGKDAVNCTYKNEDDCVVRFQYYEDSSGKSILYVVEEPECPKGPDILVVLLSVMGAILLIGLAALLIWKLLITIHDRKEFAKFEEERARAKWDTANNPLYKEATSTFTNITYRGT
UniProt P11464, residues 35-419: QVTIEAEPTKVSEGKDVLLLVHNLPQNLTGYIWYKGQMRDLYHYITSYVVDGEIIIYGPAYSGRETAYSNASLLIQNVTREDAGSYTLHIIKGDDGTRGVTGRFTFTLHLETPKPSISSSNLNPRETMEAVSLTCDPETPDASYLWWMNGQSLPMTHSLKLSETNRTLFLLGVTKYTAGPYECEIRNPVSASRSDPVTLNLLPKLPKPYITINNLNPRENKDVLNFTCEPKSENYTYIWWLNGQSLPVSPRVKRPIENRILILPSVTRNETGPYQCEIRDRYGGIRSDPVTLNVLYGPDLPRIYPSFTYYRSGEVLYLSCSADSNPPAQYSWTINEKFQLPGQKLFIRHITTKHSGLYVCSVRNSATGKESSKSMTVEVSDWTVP
UniProt Q00887, residues 35-426: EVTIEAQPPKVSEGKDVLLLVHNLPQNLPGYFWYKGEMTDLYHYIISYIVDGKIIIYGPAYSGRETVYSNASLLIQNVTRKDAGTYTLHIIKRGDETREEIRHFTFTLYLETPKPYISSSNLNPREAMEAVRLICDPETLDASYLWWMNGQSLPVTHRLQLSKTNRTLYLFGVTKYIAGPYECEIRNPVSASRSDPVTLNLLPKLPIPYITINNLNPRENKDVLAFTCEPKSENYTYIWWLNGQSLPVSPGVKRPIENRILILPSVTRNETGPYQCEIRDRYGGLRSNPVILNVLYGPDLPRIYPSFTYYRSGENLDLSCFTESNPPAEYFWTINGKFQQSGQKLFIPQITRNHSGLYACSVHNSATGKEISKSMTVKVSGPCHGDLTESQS

Experiments:
[1] = biological target: T1, human integrin αIIbβ3 in a stably transfected CHO cell line (human) (UniProt P08514+P05106); experiment: co-IP; αIIbβ3 immunoprecipitated with anti-αIIbβ3 mAb and Protein G agarose from lysates of stably transfected CHO cells (Tris HCl pH 7.4, 150 mM NaCl, 1% NP40); washed beads incubated with purified PSG1 1 h at RT; western blot; sham transfected CHO lysate as control; only the binder purified
[2] = biological target: T1, human integrin αIIbβ3 in a stably transfected CHO cell line (human); experiment: fluorescent ligand binding to adherent cells (LI-COR Odyssey plate scan); 50 µg/ml Dylight-800 labelled PSG1 on αIIbβ3 dual-transfected or mock-transfected CHO-K1 cells in 96-well plates, 30 min at 37°C; washed, fixed; signal normalised to SYTO60; only the binder purified
[3] = biological target: platelet integrin αIIbβ3 on washed human platelets (human (endogenous in human platelets)) (UniProt P08514+P05106); experiment: flow cytometry on cells; binding of Oregon Green fibrinogen (OgFg) to washed human platelets in the presence of PSG proteins (about 5 to 100 or 200 µg/ml), 10 min RT before and 10 min after 3.4 µM TRAP; in separate series 250 nM U46619, 10 µM ADP or 25 µM epinephrine as agonist; TRAP-activated set at 100%, resting at 0%; only the binder purified

- binding [1]: binds
Substance: recombinant wildtype human PSG1 (pregnancy-specific glycoprotein 1, PSG1a) (from UniProt P11464-1 35-419)

- binding [2]: binds
Substance: fluorescent PSG1 (PSG1–800), recombinant PSG1 labelled with Dylight-800 (from UniProt P11464 35-419)

- binding [3]: binds
Substance: recombinant human PSG9 (from UniProt Q00887 35-426)
